Values from PubChem BioAssay AID1508588 (Peter MacCallum Cancer Centre, 2020).
Aim: 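Knock-downs boosting vemurafenib effects on melanoma cell growth or lactate release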 (primary screen). Cells: human WM266.4 melanoma cells (BRAF V600 mutant). Reagents: siRNA pool against human genes, 40 nM. Time to read-out: 96 h from transfection to read-out. Challenge: vemurafenib 300 nM (about IC25), added 48 h after transfection, for 48 h; comparison arm got DMSO vehicle only. Measured: 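Ratios to non-targeting siRNA for cell gain, counted as DAPI nuclei after minus before drug and averaged over two replicates, and for absorbance-read medium lactate per cell; both binned into fold-change classes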. Direction: cell gain with vemurafenib: higher = more cell gain than with non-targeting siRNA; lactate per cell with vemurafenib: higher = more lactate made per cell. Rule for the call: 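Enhancement is called by pairing each knock-down's vehicle-arm and drug-arm fold-change classes for viability or glycolysis; which class combinations qualify is not given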. Meaning of the calls: active = enhances vemurafenib effect; inactive = no enhancement seen.
The whole screen tested about 18,000 reagents; this is a part drawn at random. Of all reagents, 790 (4.4%) got an active call. 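Calls rest on a combination of fold-change classes in drug and vehicle arms, not all shown here.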

no.	gene symbol	PubChem SID	cell gain with vemurafenib	lactate per cell with vemurafenib	Call
1	KCND3	SID134311644	0.52	1.68	inactive
2	GNPDA1	SID152152004	1.02	0.77	inactive
3	CIP2A	SID134318312	0.67	1.07	inactive
4	MFAP3	SID134321046	0.48	0.46	active
5	RPS27A	SID134317932	-0.02	1.52	inactive
6	PPIG	SID134313173	0.15	2.67	inactive
7	GLTP	SID152155589	0.42	1.99	inactive
8	RPS3A	SID152148162	-0.02	1.67	inactive
9	OR2W1	SID152151593	0.26	1.08	inactive
10	SPACA5B	SID135625672	0.63	1.1	inactive
11	RFC3	SID152156084	1.31	0.16	active
12	NEUROD4	SID152147650	0.44	0.32	active
13	ADCK2	SID56478993	0.34	1.61	inactive
14	GALE	SID135621858	0.71	0.74	inactive
15	TROAP	SID135623888	0.85	1.17	inactive
16	DCAF11	SID134322868	0.68	0.71	inactive
17	OR6B2	SID134329955	0.66	0.6	inactive
18	MEX3D	SID152153581	1.2	0.94	inactive
19	PRPF39	SID135624173	0.91	0.8	inactive
20	FXYD3	SID134310009	0.13	0.7	inactive
21	S100A2	SID134316480	0.72	0.66	inactive
22	CLIC6	SID134317169	0.64	0.66	inactive
23	CD28	SID135622383	0.75	1.19	inactive
24	ZNF805	SID135624967	0.68	0.56	inactive
25	DENND4C	SID152155829	0.75	0.82	inactive
26	DIAPH2	SID152152342	0.75	0.5	inactive
27	SIAH1	SID135622346	0.5	1.09	inactive
28	SLC6A13	SID134312646	0.34	0.1	active
29	RYR3	SID152155888	0.94	0.9	inactive
30	GSC	SID134323064	0.25	1.17	inactive
31	CLPS	SID134313150	0.41	2.84	inactive
32	EPM2AIP1	SID134322746	0.48	1.34	inactive
33	ARHGAP10	SID152149165	0.57	0.68	inactive
34	H3C7	SID134317362	0.31	0.93	inactive
35	NAGK	SID135621243	-0.03	3.38	inactive
36	HRH2	SID135621036	-0.08	3.79	inactive
37	COG2	SID135623753	0.91	0.66	inactive
38	TFF2	SID134315043	0.67	0.8	inactive
39	STRA6	SID134320457	0.35	0.52	inactive
40	CXorf65	SID152155807	0.87	0.56	inactive
41	ATPAF1	SID135622598	0.75	0.96	inactive
42	PKN3	SID56478823	0.56	1.23	inactive
43	RSPRY1	SID135624310	1.02	0.65	inactive
44	TRAP1	SID152156745	0.52	1.11	inactive
45	LETMD1	SID135623236	0.39	1.98	inactive
46	ZNF787	SID152154748	0.68	0.5	inactive
47	AKAP13	SID56479218	1.09	1.04	inactive
48	POLR3F	SID134323044	0.09	1	inactive
49	POMGNT1	SID152156244	0.54	0.64	inactive
50	SLC38A10	SID152155038	0.08	0.44	active
51	TMX4	SID134315209	1.01	0.7	inactive
52	PPFIBP1	SID134315818	0.47	1	inactive
53	UBASH3B	SID135621590	0.56	0.87	inactive
54	SEPTIN4	SID134316201	0.67	1.22	inactive
55	SEPTIN4	SID152153650	0.57	1.61	inactive
56	GNPNAT1	SID135620959	0.49	1.7	inactive
57	SMARCAL1	SID152147674	0.4	0.6	inactive
58	ALDH1L2	SID152150650	0.11	1.3	inactive
59	AQP4	SID152147229	0.5	2.24	inactive
60	CLSPN	SID134310856	0.02	2.41	inactive
61	IL37	SID134312892	0.83	1.13	inactive
62	TERF2	SID134309947	0.49	0.71	inactive
63	MSL3	SID135622299	0.6	2.14	inactive
64	WNT7A	SID134313410	1.04	1.15	inactive
65	SLC29A1	SID152153218	0.22	1.03	inactive
66	SLC25A48	SID135621356	0.25	1.29	inactive
67	AKAP8L	SID134314023	0.16	1.08	inactive
68	TM4SF5	SID152155841	0.89	0.44	inactive
69	MADCAM1	SID135623341	0.7	0.29	inactive
70	MAP2K2	SID56478689	0.95	0.32	inactive
71	TREM2	SID135624153	0.37	1.31	inactive
72	EIF1B	SID134323744	0.57	1.09	inactive
73	MGA	SID135624287	-0.01	1.85	inactive
74	MOGAT1	SID152154574	0.92	1.29	inactive
75	INTS10	SID152149794	0.3	0.92	inactive
76	SEPSECS	SID134319595	0.81	0.46	inactive
77	SHE	SID135624715	0.78	0.73	inactive
78	ERCC4	SID134323701	0.27	0.8	inactive
79	CXCL13	SID134312811	0.87	0.62	inactive
80	OR4S2	SID152148671	0.13	1.09	inactive
81	INO80C	SID152149524	0.55	1.32	inactive
82	PIR	SID152147163	0.5	1.31	inactive
83	SET	SID152149543	0.07	1.94	inactive
84	TRPC7	SID134311836	0.36	0.78	inactive
85	SRSF9	SID134323312	0.81	1	inactive
86	OSMR	SID152149852	0.59	0.88	inactive
87	MAL	SID135622186	0.9	0.74	inactive
88	MINAR1	SID152156055	0.67	1.1	inactive
89	RTL9	SID134318212	0.75	0.71	inactive
90	RASSF10	SID135625491	1.09	1.12	inactive
91	XAGE1B	SID134317421	0.83	1.02	inactive
92	DGUOK	SID152155858	0.61	0.55	inactive
93	POM121	SID134321505	0.39	0.65	inactive
94	GLIPR2	SID135623216	0.48	0.86	inactive
95	EFR3A	SID152149454	0.51	0.69	active
96	RAB40C	SID134314940	0.85	1.02	inactive
97	UBE2N	SID134310165	0.63	0.66	inactive
98	ABCC9	SID152154956	0.61	0.62	inactive
99	DET1	SID134323187	0.9	0.82	inactive
100	DNAL1	SID135622806	0.67	1.31	inactive
101	FAM217A	SID134322288	0.66	0.88	inactive
102	CIMAP1A	SID134319249	0.67	0.5	inactive
103	STX19	SID135625123	0.35	1.37	inactive
104	TTYH1	SID135624045	0.76	1.05	inactive
105	ZNF395	SID135623978	0.87	0.89	inactive
106	PDXK	SID56478979	0.94	0.74	inactive
107	MYH2	SID152147719	0.52	1.46	inactive
